Here are results for one molecule from doi:10.1101/2021.04.10.439283.

For the test, the target named is T1, Mre11 fused to lexA-DBD (S. cerevisiae) (UniProt P32829).
T1 sequence: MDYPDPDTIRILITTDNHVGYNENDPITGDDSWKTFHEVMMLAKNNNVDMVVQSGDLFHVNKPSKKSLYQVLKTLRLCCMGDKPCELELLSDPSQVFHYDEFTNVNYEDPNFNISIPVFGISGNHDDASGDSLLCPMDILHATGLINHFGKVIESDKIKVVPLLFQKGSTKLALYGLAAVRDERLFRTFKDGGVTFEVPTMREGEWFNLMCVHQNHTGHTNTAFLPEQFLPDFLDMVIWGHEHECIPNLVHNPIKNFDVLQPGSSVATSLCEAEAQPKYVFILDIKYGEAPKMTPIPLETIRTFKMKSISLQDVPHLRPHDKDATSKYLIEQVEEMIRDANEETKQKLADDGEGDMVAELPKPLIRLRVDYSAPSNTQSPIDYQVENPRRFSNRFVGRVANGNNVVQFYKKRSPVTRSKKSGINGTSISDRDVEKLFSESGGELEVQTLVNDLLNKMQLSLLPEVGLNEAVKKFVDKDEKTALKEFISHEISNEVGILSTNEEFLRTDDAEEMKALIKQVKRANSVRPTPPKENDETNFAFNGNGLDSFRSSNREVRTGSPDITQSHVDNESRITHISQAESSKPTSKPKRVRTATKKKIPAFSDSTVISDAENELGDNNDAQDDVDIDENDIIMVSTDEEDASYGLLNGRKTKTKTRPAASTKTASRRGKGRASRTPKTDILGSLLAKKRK
Description: two-hybrid.

Results are given in words; binding and its absence hold for the method and conditions named. Some entries that bind do so weakly or less than the wild type. Sequences can lack the tags named with a protein.

B1: Rad50 fused to HA-AD (protein, UniProt P12753 1-1312)
chain: MSAIYKLSIQGIRSFDSNDRETIEFGKPLTLIVGMNGSGKTTIIECLKYATTGDLPPNSKGGVFIHDPKITGEKDIRAQVKLAFTSANGLNMIVTRNIQLLMKKTTTTFKTLEGQLVAINNSGDRSTLSTRSLELDAQVPLYLGVPKAILEYVIFCHQEDSLWPLSEPSNLKKKFDEIFQAMKFTKALDNLKSIKKDMSVDIKLLKQSVEHLKLDKDRSKAMKLNIHQLQTKIDQYNEEVSEIESQLNEITEKSDKLFKSNQDFQKILSKVENLKNTKLSISDQVKRLSNSIDILDLSKPDLQNLLANFSKVLMDKNNQLRDLETDISSLKDRQSSLQSLSNSLIRRQGELEAGKETYEKNRNHLSSLKEAFQHKFQGLSNIENSDMAQVNHEMSQFKAFISQDLTDTIDQFAKDIQLKETNLSDLIKSITVDSQNLEYNKKDRSKLIHDSEELAEKLKSFKSLSTQDSLNHELENLKTYKEKLQSWESENIIPKLNQKIEEKNNEMIILENQIEKFQDRIMKTNQQADLYAKLGLIKKSINTKLDELQKITEKLQNDSRIRQVFPLTQEFQRADLEMDFQKLFINMQKNIAINNKKMHELDRRYTNALYNLNTIEKDLQDNQKSKEKVIQLLSENLPEDCTIDEYNDVLEETELSYKTALENLKMHQTTLEFNRKALEIAERDSCCYLCSRKFENESFKSKLLQELKTKTDANFEKTLKDTVQNEKEYLHSLRLLEKHIITLNSINEKIDNSQKCLEKAKEETKTSKSKLDELEVDSTKLKDEKELAESEIRPLIEKFTYLEKELKDLENSSKTISEELSIYNTSEDGIQTVDELRDQQRKMNDSLRELRKTISDLQMEKDEKVRENSRMINLIKEKELTVSEIESSLTQKQNIDDSIRSKRENINDIDSRVKELEARIISLKNKKDEAQSVLDKVKNERDIQVRNKQKTVADINRLIDRFQTIYNEVVDFEAKGFDELQTTIKELELNKAQMLELKEQLDLKSNEVNEEKRKLADSNNEEKNLKQNLELIELKSQLQHIESEISRLDVQNAEAERDKYQEESLRLRTRFEKLSSENAGKLGEMKQLQNQIDSLTHQLRTDYKDIEKNYHKEWVELQTRSFVTDDIDVYSKALDSAIMKYHGLKMQDINRIIDELWKRTYSGTDIDTIKIRSDEVSSTVKGKSYNYRVVMYKQDVELDMRGRCSAGQKVLASIIIRLALSETFGANCGVIALDEPTTNLDEENIESLAKSLHNIINMRRHQKNFQLIVITHDEKFLGHMNAAAFTDHFFKVKRDDRQKSQIEWVDINRVTY
Take B1: the binding entry was “binds”.
